Results published in publication PMC2654099.
Results are given in words; binding and its absence hold for the method and conditions named. For some of these results: Binding seen in cells or lysates may run through a third protein. Some binding calls cover weakened binding; strength is not graded here. For some of these results: Where a sequence is shown, tags or fusion partners need not be part of it.

The chains behind the UniProt entries cited, without tags or fusion partners. Where a name states a change or a piece, a line headed by the entry shows the natural chain unless it says otherwise. A line that says so, or that is headed by a name, gives the form on record, which may keep a tag or linker.
PP1γ2, endogenous in cauda epididymal sperm (P63087-2, form named): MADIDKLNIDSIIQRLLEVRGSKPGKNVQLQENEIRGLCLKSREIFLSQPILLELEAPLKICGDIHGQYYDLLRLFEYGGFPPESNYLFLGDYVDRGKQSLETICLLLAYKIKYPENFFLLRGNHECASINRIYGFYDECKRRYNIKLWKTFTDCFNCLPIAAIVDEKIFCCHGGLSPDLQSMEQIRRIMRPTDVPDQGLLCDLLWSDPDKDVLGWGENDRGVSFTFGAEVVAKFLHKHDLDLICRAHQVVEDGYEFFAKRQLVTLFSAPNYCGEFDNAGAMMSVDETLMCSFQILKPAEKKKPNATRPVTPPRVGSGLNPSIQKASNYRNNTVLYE

T1: PPP1R11 (protein phosphatase 1 regulatory subunit 11), endogenous in mouse testis (mouse (endogenous in testis)) (UniProt Q8K1L5)
T1 sequence: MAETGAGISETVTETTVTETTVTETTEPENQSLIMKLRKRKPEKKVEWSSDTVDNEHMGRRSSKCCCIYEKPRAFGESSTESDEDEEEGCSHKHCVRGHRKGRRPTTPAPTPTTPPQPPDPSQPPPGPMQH

T2: Sds22 (protein phosphatase 1 regulatory subunit 7, PPP1R7), endogenous in mouse testis (mouse (endogenous in testis)) (UniProt Q3UM45)
T2 sequence: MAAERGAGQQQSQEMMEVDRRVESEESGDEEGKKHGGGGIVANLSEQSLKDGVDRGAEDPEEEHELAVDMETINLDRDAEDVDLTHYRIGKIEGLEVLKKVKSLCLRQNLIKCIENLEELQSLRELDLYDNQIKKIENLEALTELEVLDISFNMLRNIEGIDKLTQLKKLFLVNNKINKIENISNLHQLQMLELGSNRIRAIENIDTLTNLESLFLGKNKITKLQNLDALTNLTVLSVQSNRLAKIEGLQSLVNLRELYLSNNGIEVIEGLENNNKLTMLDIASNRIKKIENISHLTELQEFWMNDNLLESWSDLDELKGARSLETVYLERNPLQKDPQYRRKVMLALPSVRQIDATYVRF

T3: GST-tagged recombinant PPP1R11 (mouse) (UniProt Q8K1L5)
T3 sequence: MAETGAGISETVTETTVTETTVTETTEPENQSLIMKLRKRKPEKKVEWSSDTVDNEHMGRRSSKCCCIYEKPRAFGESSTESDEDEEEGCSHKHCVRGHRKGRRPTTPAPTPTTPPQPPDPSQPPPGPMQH


Legend:
[1] = molecular target: T1, PPP1R11 (protein phosphatase 1 regulatory subunit 11), endogenous in mouse testis (mouse (endogenous in testis)); assay: SEC; mouse testis extracts fractionated in series by DEAE, MonoQ and Superose 6 columns; fractions analysed by western blot
[2] = molecular target: T1, PPP1R11 (protein phosphatase 1 regulatory subunit 11), endogenous in mouse testis (mouse (endogenous in testis)); assay: co-IP; crude mouse testis extracts, anti-PP1γ2 or anti-PPP1R11 (preimmune serum as control) on Protein G-Sepharose 4 beads, 4°C; western blot
[3] = molecular target: T1, PPP1R11 (protein phosphatase 1 regulatory subunit 11), endogenous in mouse testis (mouse (endogenous in testis)); assay: co-IP; Superose 6 fractions (C4 and C5) of mouse testis extracts, anti-PPP1R11, anti-PP1γ2 or anti-Sds22 (preimmune serum as control) on Protein G-Sepharose 4 beads; western blot
[4] = molecular target: T2, Sds22 (protein phosphatase 1 regulatory subunit 7, PPP1R7), endogenous in mouse testis (mouse (endogenous in testis)); assay: as above
[5] = molecular target: T1, PPP1R11 (protein phosphatase 1 regulatory subunit 11), endogenous in mouse testis (mouse (endogenous in testis)); assay: co-IP; mouse testis fractions purified by DEAE-, MonoQ- and Superdex 200-column chromatography, immunoprecipitated with anti-actin, anti-PPP1R11, anti-Sds22 or anti-PP1γ2; western blot
[6] = molecular target: T2, Sds22 (protein phosphatase 1 regulatory subunit 7, PPP1R7), endogenous in mouse testis (mouse (endogenous in testis)); assay: as above
[7] = molecular target: T1, PPP1R11 (protein phosphatase 1 regulatory subunit 11), endogenous in mouse testis (mouse (endogenous in testis)); assay: native gel or EMSA; Superose 6 fractions C4 and C5 of mouse testis proteins separated by native PAGE (10% Tris-HCl gel); replicate blot strips probed with anti-PPP1R11, anti-PP1γ2 or anti-Sds22
[8] = molecular target: T3, GST-tagged recombinant PPP1R11 (mouse); assay: pull-down; GST-PPP1R11 or GST alone on Glutathione Sepharose 4B beads incubated with mouse testis extracts, 2 h at 4°C; eluted with 20 mM reduced glutathione, 50 mM Tris, pH 8.0; western blot; only the target purified
[9] = molecular target: PP1γ2 (protein phosphatase 1 gamma 2 isoform), endogenous in mouse testis (mouse (endogenous in testis)) (UniProt P63087); assay: co-IP; crude mouse testis extracts, anti-PP1γ2 or anti-PPP1R11 (preimmune serum as control) on Protein G-Sepharose 4 beads, 4°C; western blot
[10] = molecular target: PP1γ2 (protein phosphatase 1 gamma 2 isoform), endogenous in mouse testis (mouse (endogenous in testis)) (UniProt P63087); assay: co-IP; Superose 6 fractions (C4 and C5) of mouse testis extracts, anti-PPP1R11, anti-PP1γ2 or anti-Sds22 (preimmune serum as control) on Protein G-Sepharose 4 beads; western blot
[11] = molecular target: PP1γ2 (protein phosphatase 1 gamma 2 isoform), endogenous in mouse testis (mouse (endogenous in testis)) (UniProt P63087); assay: co-IP; mouse testis fractions purified by DEAE-, MonoQ- and Superdex 200-column chromatography, immunoprecipitated with anti-actin, anti-PPP1R11, anti-Sds22 or anti-PP1γ2; western blot
[12] = molecular target: PP1γ2 (protein phosphatase 1 gamma 2 isoform), endogenous in mouse testis (mouse (endogenous in testis)) (UniProt P63087); assay: native gel or EMSA; Superdex 200 fraction of mouse testis proteins on a non-denaturing gel; Coomassie band matching the common immunoreactive band excised and microsequenced after in-gel proteolysis (data not shown)
[13] = molecular target: PP1γ2, endogenous in cauda epididymal sperm (UniProt P63087); assay: SEC; cauda sperm protein extracts fractionated by DEAE, MonoQ and Superose 6; fractions immunoblotted with anti-Sds22, anti-PP1γ2, anti-PPP1R11, anti-PP2A and anti-actin
[14] = molecular target: PP1γ2 (protein phosphatase 1 gamma 2 isoform), endogenous in mouse testis (mouse (endogenous in testis)) (UniProt P63087); assay: SEC; mouse testis extracts fractionated in series by DEAE, MonoQ and Superose 6 columns; fractions analysed by western blot
[15] = molecular target: PP1γ2 (protein phosphatase 1 gamma 2 isoform), endogenous in mouse testis (mouse (endogenous in testis)) (UniProt P63087); assay: native gel or EMSA; Superose 6 fractions C4 and C5 of mouse testis proteins separated by native PAGE (10% Tris-HCl gel); replicate blot strips probed with anti-PPP1R11, anti-PP1γ2 or anti-Sds22

Molecule | binding [1] | binding [2] | binding [3] | binding [4] | binding [5] | binding [6] | binding [7] | binding [8] | binding [9] | binding [10] | binding [11] | binding [12] | binding [13] | binding [14] | binding [15]
PP1γ2 (protein phosphatase 1 gamma 2 isoform), endogenous in mouse testis (from UniProt P63087-2 1-337) (enzyme) | binds | binds | binds | binds | binds | binds | binds | binds | – | – | – | – | – | – | –
PPP1R11 (protein phosphatase 1 regulatory subunit 11), endogenous in mouse testis (protein, UniProt Q8K1L5 1-131) MAETGAGISETVTETTVTETTVTETTEPENQSLIMKLRKRKPEKKVEWSSDTVDNEHMGRRSSKCCCIYEKPRAFGESSTESDEDEEEGCSHKHCVRGHRKGRRPTTPAPTPTTPPQPPDPSQPPPGPMQH | – | – | – | binds | – | binds | – | – | binds | binds | binds | binds | – | – | –

The next lines start with the values.

binding [1] | binding [2] | binding [3] | binding [4] | binding [5] | binding [6] | binding [7] | binding [8] | binding [9] | binding [10] | binding [11] | binding [12] | binding [13] | binding [14] | binding [15] | Molecule
– | – | – | – | – | – | – | – | – | – | – | – | binds | – | – | PPP1R11, endogenous in cauda epididymal sperm (protein, UniProt Q8K1L5 1-131) MAETGAGISETVTETTVTETTVTETTEPENQSLIMKLRKRKPEKKVEWSSDTVDNEHMGRRSSKCCCIYEKPRAFGESSTESDEDEEEGCSHKHCVRGHRKGRRPTTPAPTPTTPPQPPDPSQPPPGPMQH
binds | binds | binds | – | binds | – | binds | binds | binds | binds | binds | binds | – | binds | binds | Sds22 (protein phosphatase 1 regulatory subunit 7, PPP1R7), endogenous in mouse testis (protein, UniProt Q3UM45 1-361) MAAERGAGQQQSQEMMEVDRRVESEESGDEEGKKHGGGGIVANLSEQSLKDGVDRGAEDPEEEHELAVDMETINLDRDAEDVDLTHYRIGKIEGLEVLKKVKSLCLRQNLIKCIENLEELQSLRELDLYDNQIKKIENLEALTELEVLDISFNMLRNIEGIDKLTQLKKLFLVNNKINKIENISNLHQLQMLELGSNRIRAIENIDTLTNLESLFLGKNKITKLQNLDALTNLTVLSVQSNRLAKIEGLQSLVNLRELYLSNNGIEVIEGLENNNKLTMLDIASNRIKKIENISHLTELQEFWMNDNLLESWSDLDELKGARSLETVYLERNPLQKDPQYRRKVMLALPSVRQIDATYVRF
– | – | – | – | – | – | – | – | – | – | – | – | binds | – | – | Sds22, endogenous in cauda epididymal sperm (protein, UniProt Q3UM45 1-361) MAAERGAGQQQSQEMMEVDRRVESEESGDEEGKKHGGGGIVANLSEQSLKDGVDRGAEDPEEEHELAVDMETINLDRDAEDVDLTHYRIGKIEGLEVLKKVKSLCLRQNLIKCIENLEELQSLRELDLYDNQIKKIENLEALTELEVLDISFNMLRNIEGIDKLTQLKKLFLVNNKINKIENISNLHQLQMLELGSNRIRAIENIDTLTNLESLFLGKNKITKLQNLDALTNLTVLSVQSNRLAKIEGLQSLVNLRELYLSNNGIEVIEGLENNNKLTMLDIASNRIKKIENISHLTELQEFWMNDNLLESWSDLDELKGARSLETVYLERNPLQKDPQYRRKVMLALPSVRQIDATYVRF
